# Results reported in PMC10250186.
# Sequences of proteins named here, by UniProt entry; tags and fusion partners are left off.
# UniProt Q15046: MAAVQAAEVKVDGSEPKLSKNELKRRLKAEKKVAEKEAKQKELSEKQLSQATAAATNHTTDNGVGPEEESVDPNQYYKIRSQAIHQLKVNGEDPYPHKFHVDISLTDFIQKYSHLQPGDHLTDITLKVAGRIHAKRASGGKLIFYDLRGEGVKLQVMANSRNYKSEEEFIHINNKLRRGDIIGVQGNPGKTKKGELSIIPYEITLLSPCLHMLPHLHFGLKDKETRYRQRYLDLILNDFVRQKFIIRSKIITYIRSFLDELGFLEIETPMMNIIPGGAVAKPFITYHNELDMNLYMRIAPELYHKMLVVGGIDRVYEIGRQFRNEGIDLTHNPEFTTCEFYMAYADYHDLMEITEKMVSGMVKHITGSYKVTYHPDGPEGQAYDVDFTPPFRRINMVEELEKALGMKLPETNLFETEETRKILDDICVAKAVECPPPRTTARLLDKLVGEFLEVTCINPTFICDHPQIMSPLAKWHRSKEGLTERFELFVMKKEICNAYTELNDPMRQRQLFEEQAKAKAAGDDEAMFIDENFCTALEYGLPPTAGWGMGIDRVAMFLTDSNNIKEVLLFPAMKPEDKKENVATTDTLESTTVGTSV
# These are yes or no findings as the source states them, for the method shown. Some results given as binding are weak or reduced against the parent protein; the word gives no strength.
# T1: glutamyl-prolyl-tRNA synthetase (EPRS1) (human (endogenous in Calu-3 and A549-hACE2)), P07814
# T1 chain: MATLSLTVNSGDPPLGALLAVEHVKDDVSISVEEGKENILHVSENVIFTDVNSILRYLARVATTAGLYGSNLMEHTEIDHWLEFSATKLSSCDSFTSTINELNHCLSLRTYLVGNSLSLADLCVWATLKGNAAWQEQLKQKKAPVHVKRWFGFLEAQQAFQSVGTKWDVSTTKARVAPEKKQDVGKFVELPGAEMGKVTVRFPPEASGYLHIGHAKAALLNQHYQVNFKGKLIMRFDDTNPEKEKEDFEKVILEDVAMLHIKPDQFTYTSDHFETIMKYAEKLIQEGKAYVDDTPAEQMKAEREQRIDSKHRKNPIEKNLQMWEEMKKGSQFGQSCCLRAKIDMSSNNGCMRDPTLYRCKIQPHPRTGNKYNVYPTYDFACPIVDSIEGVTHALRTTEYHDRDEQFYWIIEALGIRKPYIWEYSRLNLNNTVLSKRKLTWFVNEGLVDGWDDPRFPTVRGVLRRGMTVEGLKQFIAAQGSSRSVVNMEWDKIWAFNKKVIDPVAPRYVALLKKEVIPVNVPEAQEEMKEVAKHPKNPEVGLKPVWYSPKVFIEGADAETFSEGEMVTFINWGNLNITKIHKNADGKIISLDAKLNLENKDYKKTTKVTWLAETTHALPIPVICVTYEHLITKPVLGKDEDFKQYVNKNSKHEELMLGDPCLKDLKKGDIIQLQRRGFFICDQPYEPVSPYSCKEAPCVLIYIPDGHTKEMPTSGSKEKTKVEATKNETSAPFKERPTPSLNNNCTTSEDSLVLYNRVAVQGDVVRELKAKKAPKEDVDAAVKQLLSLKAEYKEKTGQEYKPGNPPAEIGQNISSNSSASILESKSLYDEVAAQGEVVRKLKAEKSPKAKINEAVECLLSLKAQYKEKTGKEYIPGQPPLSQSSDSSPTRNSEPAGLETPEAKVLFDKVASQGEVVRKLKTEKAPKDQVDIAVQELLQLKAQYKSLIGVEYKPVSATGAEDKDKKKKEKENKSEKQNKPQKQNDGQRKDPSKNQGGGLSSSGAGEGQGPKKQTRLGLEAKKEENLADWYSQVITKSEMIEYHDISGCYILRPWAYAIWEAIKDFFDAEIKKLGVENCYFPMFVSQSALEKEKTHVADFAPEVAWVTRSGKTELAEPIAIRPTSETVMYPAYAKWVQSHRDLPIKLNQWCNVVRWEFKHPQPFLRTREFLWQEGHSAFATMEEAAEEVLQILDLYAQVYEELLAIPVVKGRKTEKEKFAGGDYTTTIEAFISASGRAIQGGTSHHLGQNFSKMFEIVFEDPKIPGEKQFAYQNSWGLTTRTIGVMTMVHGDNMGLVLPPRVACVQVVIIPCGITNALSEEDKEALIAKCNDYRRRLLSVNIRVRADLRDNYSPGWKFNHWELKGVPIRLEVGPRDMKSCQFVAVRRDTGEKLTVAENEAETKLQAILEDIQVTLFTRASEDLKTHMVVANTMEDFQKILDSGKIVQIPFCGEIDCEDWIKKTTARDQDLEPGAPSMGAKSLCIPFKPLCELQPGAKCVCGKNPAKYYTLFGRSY
# Tests used:
# [1] = target: glutamyl-prolyl-tRNA synthetase (EPRS1) (human (endogenous in Calu-3 and A549-hACE2)) (UniProt P07814); assay: SEC
# [2] = target: T1, glutamyl-prolyl-tRNA synthetase (EPRS1) …; assay: SEC; settings: remark: other sources report otherwise
binding [1],binding [2],Molecule
binds,–,KARS1 (from UniProt Q15046 1-597)
–,binds,"MARS1, P56192 1-900 (protein) MRLFVSDGVPGCLPVLAAAGRARGRAEVLISTVGPEDCVVPFLTRPKVPVLQLDSGNYLFSTSAICRYFFLLSGWEQDDLTNQWLEWEATELQPALSAALYYLVVQGKKGEDVLGSVRRALTHIDHSLSRQNCPFLAGETESLADIVLWGALYPLLQDPAYLPEELSALHSWFQTLSTQEPCQRAAETVLKQQGVLALRPYLQKQPQPSPAEGRAVTNEPEEEELATLSEEEIAMAVTAWEKGLESLPPLRPQQNPVLPVAGERNVLITSALPYVNNVPHLGNIIGCVLSADVFARYSRLRQWNTLYLCGTDEYGTATETKALEEGLTPQEICDKYHIIHADIYRWFNISFDIFGRTTTPQQTKITQDIFQQLLKRGFVLQDTVEQLRCEHCARFLADRFVEGVCPFCGYEEARGDQCDKCGKLINAVELKKPQCKVCRSCPVVQSSQHLFLDLPKLEKRLEEWLGRTLPGSDWTPNAQFITRSWLRDGLKPRCITRDLKWGTPVPLEGFEDKVFYVWFDATIGYLSITANYTDQWERWWKNPEQVDLYQFMAKDNVPFHSLVFPCSALGAEDNYTLVSHLIATEYLNYEDGKFSKSRGVGVFGDMAQDTGIPADIWRFYLLYIRPEGQDSAFSWTDLLLKNNSELLNNLGNFINRAGMFVSKFFGGYVPEMVLTPDDQRLLAHVTLELQHYHQLLEKVRIRDALRSILTISRHGNQYIQVNEPWKRIKGSEADRQRAGTVTGLAVNIAALLSVMLQPYMPTVSATIQAQLQLPPPACSILLTNFLCTLPAGHQIGTVSPLFQKLENDQIESLRQRFGGGQAKTSPKPAVVETVTTAKPQQIQALMDEVTKQGNIVRELKAQKADKNEVAAEVAKLLDLKKQLAVAEGKPPEAPKGKKKK"
–,binds,"RARS1, P54136 1-660 (protein) MDVLVSECSARLLQQEEEIKSLTAEIDRLKNCGCLGASPNLEQLQEENLKLKYRLNILRKSLQAERNKPTKNMINIISRLQEVFGHAIKAAYPDLENPPLLVTPSQQAKFGDYQCNSAMGISQMLKTKEQKVNPREIAENITKHLPDNECIEKVEIAGPGFINVHLRKDFVSEQLTSLLVNGVQLPALGENKKVIVDFSSPNIAKEMHVGHLRSTIIGESISRLFEFAGYDVLRLNHVGDWGTQFGMLIAHLQDKFPDYLTVSPPIGDLQVFYKESKKRFDTEEEFKKRAYQCVVLLQGKNPDITKAWKLICDVSRQELNKIYDALDVSLIERGESFYQDRMNDIVKEFEDRGFVQVDDGRKIVFVPGCSIPLTIVKSDGGYTYDTSDLAAIKQRLFEEKADMIIYVVDNGQSVHFQTIFAAAQMIGWYDPKVTRVFHAGFGVVLGEDKKKFKTRSGETVRLMDLLGEGLKRSMDKLKEKERDKVLTAEELNAAQTSVAYGCIKYADLSHNRLNDYIFSFDKMLDDRGNTAAYLLYAFTRIRSIARLANIDEEMLQKAARETKILLDHEKEWKLGRCILRFPEILQKILDDLFLHTLCDYIYELATAFTEFYDSCYCVEKDRQTGKILKVNMWRMLLCEAVAAVMAKGFDILGIKPVQRM"
